# Experimental data from patent publication US10052392B2, “Low molecular weight polyethylene glycol drug conjugates having improved drug biological activity” (JENKEM TECHNOLOGY CO., LTD. (TIANJIN), priority 2013, dated 2018).
# At least one structure is not confirmed: it was looked up by name or label, or the drawing left a doubt.
# Assay: Blood-brain barrier permeability, rat steady-state infusion model (Kp value)
# Format: in vivo
# Conditions: relative to dasatinib
smiles,measurement,value
"Cc1nc(Nc2ncc(C(=O)Nc3c(C)cccc3Cl)s2)cc(N2CCN(CCOCCOCCOCCOCCOCCOCCOCCN3CCN(c4cc(Nc5ncc(C(=O)Nc6c(C)cccc6Cl)s5)nc(C)n4)CC3)CC2)n1 [DSTN-62, Double Endhexaethylene Glycol-dasatinib]",blood-brain barrier permeability as fraction of dasatinib,1/33
